“And” between values parts separate entries of the source, which are not always exact repeats. Equal values may be shown once. The entries are a selection whose mix differs from that of the whole data set. The source made the active and inactive calls. Calls come from the whole dose curve.
Potency is the fitted concentration of half-maximal effect.

This test deals with Schistosoma mansoni peroxiredoxin 2 (Prx2). Kind of test: Schistosoma Mansoni Peroxiredoxins (Prx2). As to conditions: S. mansoni Prx2 activity coupled to TGR/GSH (TGR is thioredoxin glutathione reductase), NADPH fluorescence loss, qHTS. An excerpt:
NIH Molecular Libraries Screening Centers Network [MLSCN]
NIH Chemical Genomics Center [NCGC]
David Williams [Illinois State University]
Schistosoma mansoni, a causative agent of schistosomiasis, resides in the bloodstream of their host up to 30 years without being eliminated by the host immune attack. One proposed survival mechanism is the production of an antioxidant "firewall" that neutralizes the oxidative assault of the host's immune attack. Schistosoma mansoni peroxiredoxins (Prx) are important parasite antioxidant proteins that play a crucial role in redox balance mechanisms. […] First, the proteins are essential for the parasite survival. […] Third, the protein(s) is amenable for study at the molecular level and can be produced in bacteria in large quantities, in soluble and active form. Inhibition of Prx activity was screened in a coupled-enzyme format with reducing equivalents being transferred from NADPH to […] intermediate via thioredoxin/glutathione reductase (TGR)-catalyzed reaction, then from thioredoxin to hydrogen peroxide via Prx-catalyzed electron transfer. A decrease in the fluorescence intensity of NADPH was used to measure the enzyme activity. Purified S. mansoni TGR and Prx were provided by Professor David L. Williams, Illinois State University.
NCGC Assay Protocol Summary:
100 mM phosphate buffer, pH 7.4, 10 mM EDTA, 0.01% Tween-20.
100 uM NADPH/25 nM TGR/700 uM GSH/50 nM Prx2 mixture in columns 1, 2, 5-48. Titration of control potassium antimonyl tartrate (PAT, from 1 mM, then 1:5) pin-transferred to lower half of column 2. Column 1 and upper half of column 2 are neutral (100% activity).
Three uL of reagents were dispensed to 1536-well Greiner black plates. Compounds and controls (20 nL) were transferred via Kalypsys PinTool. The plates were incubated for 15 min at room temperature, and then a 1 uL aliquot of 400 uM NADPH/700 uM GSH was added, immediately followed by a 1uL aliquot of 2.5 mM H2O2 (to start the reaction). The plate was transferred to ViewLux (Perkin-Elmer) High-throughput CCD imager where kinetic measurements (every 30 sec, for a total of 8 min) of NADPH fluorescence were taken using 365 nm excitation/450 nm emission filter set. During dispense, enzyme-containing reagent bottles were kept submerged into 4 deg C water bath to minimize degradation.
Keywords: NIH Roadmap, MLSCN, MLI, MLSMR, David Williams, Peroxyredoxin, Schistosoma mansoni, prx2, prx, , qHTS, NCGC
A general note: Quantitative high-throughput screening tests each substance at several concentrations.
Consider `Cc1ccccc1Nc1nnc(SCC(=O)NCc2ccco2)s1`, for which the Potency is inactive: > 57 µM.
Under `Cc1nnc(SCC(=O)NCc2cccs2)[nH]c1=O` stands inactive: > 57 µM; under `CC(C)CN(C(=O)COC(=O)c1cc2ccccc2oc1=O)C1CCS(=O)(=O)C1` (stereo unspecified), inactive: > 57 µM; under `CSc1nc(-c2ccccc2)nc2[nH]ccc(=O)c12`, inactive: > 57 µM.
Then `Cc1sc2ncnc(N3CCN(c4ncccn4)CC3)c2c1C`, with inactive: > 57 µM.
Then `Cn1c(NCCN2CCOCC2)nc2c1c(=O)n(Cc1cccc(Cl)c1)c(=O)n2C`, with inactive: > 57 µM; and `CCOC(=O)c1c(C)n(C)c2ccc(OC)c(NC(=O)CN3CCN(C(=O)c4ccco4)CC3)c12`, with inactive: > 57 µM; and `O=S(=O)(c1ccccc1)N1CCN(S(=O)(=O)c2ccccc2)c2ccccc21`, with inactive: > 57 µM.
In the case of `CC(C)c1ccc(NC(=O)COC(=O)C2=COCCO2)cc1`, the Potency was inactive: > 57 µM.
Under `O=C(Cn1cccc1)NCc1cccs1` stands inactive: > 57 µM; under `Cc1cc(C(F)(F)F)nc(SCC(=O)NC2=NC(=O)C(C)S2)n1` (stereo unspecified), inactive: > 57 µM.
Under `Cc1[nH]nc2c1C(c1ccccc1)C1=C(CC(C)(C)CC1=O)N2` (stereo unspecified) stands inactive: > 57 µM; under `CC(=O)[C@@H]1CC[C@@H]2[C@H]3CC[C@H]4C[C@@H](O)CC[C@]4(C)[C@@H]3C(=O)C[C@]21C`, inactive: > 57 µM; under `Nc1nc2ccc(OC(F)(F)F)cc2s1`, inactive: > 57 µM and inactive: > 25.6 µM.
Under `CC1(C)CC(=O)C2=C(C1)OC(N)=C(C#N)C2c1ccccc1OC(=O)N1CCOCC1` (stereo unspecified) stands inactive: > 57 µM.
Regarding `CC(=O)Nc1cccc(NC(=O)CSc2nnc(Cc3cccn3C)n2-c2ccc(F)cc2)c1`, the Potency was inactive: > 57 µM.
Then `CCC(C)C(NC(=O)OC(C)(C)C)C(=O)NCc1ccco1` (stereo unspecified), with inactive: > 57 µM; and `O=C(Cc1ccc(Cl)cc1)Nc1ccc(N2CCN(C(=O)c3ccco3)CC2)cc1`, with inactive: > 57 µM; and `Cc1c(OCC(=O)OC(C)C)ccc2c3c(c(=O)oc12)CCC3`, with inactive: > 57 µM.
For the compound `C[C@@H](C(=O)NCc1ccc(C(F)(F)F)nc1)[C@H]1C[C@]1(C)[C@H](NC(=O)OCc1ccccc1)c1ccccc1`, the Potency is inactive: > 57 µM.
Under `CC(=O)OCP(C)(=O)COC(C)=O` stands inactive: > 57 µM; under `Cc1cc(/C=C\c2ccc3cc(N(C)C)ccc3[n+]2C)c(C)n1-c1ccccc1`, inactive: > 57 µM.
Take `CSc1ccc(S(=O)(=O)NCc2ccccc2Cl)cc1`: the Potency was inactive: > 57 µM.
As to `CCC(C)NC(=O)C1CCN(S(=O)(=O)c2cccnc2)CC1` (stereo unspecified), the Potency is inactive: > 57 µM.
For the compound `N#CC1=C(N)Oc2c(oc(CO)cc2=O)C12C(=O)Nc1ccc(Cl)cc12` (stereo unspecified), the Potency is inactive: > 57 µM.
On to `O=C(CSc1nc(-c2cccs2)cc(C(F)(F)F)n1)NCCCn1ccnc1`, for which the Potency was inactive: > 57 µM.
With `COc1ccc2cc(CN(CCO)C(=O)c3ccc(Br)cc3)c(=O)[nH]c2c1`, the Potency was inactive: > 57 µM.
Then `COc1ccc(N2CCN(C(=O)CC3NC4CCCCC4NC3=O)CC2)cc1` (stereo unspecified), with inactive: > 57 µM; and `COc1ccc(OCC(=O)Nc2cc(OC)cc(OC)c2)cc1`, with inactive: > 57 µM.
Under `COCCN(CCOC)C(=O)CCn1c(=O)oc2ccccc21` stands inactive: > 57 µM.
Then `Cc1ccc(NC(=O)Cn2nc(C)c3ccccc3c2=O)cc1F`, with inactive: > 57 µM.
Regarding `CSc1nc(N2CCOCC2)c2c3c(sc2n1)CCC3`, the Potency was inactive: > 57 µM.
For `CCOCCCn1c(=N)c(C(=O)NCc2ccc3c(c2)OCO3)cc2c(=O)n3cccc(C)c3nc21`, the Potency is inactive: > 57 µM.
`CCN(CC)CCCN1C(=O)C(O)=C(C(=O)c2cc3cccc(OC)c3o2)C1c1ccncc1` (stereo unspecified): the Potency was inactive: > 57 µM.
For the compound `COc1ccccc1NC(=O)CSc1nccc(=O)[nH]1`, the Potency is inactive: > 57 µM.
Under `CCCc1cc(C(N)=O)c(NC(C)=O)s1` stands inactive: > 57 µM; under `CCN(C(=O)COc1cc(=O)n(CC)c2ccccc12)c1cc(Cl)ccc1OC`, inactive: > 57 µM; under `NS(=O)(=O)c1ccc(NC(=O)c2ccccc2C(=O)N2CCCCC2)cc1`, inactive: > 57 µM.
In the case of `CC[C@](C)(CN(C)C)OC(=O)c1ccccc1`, the Potency is inactive: > 57 µM.
As to `Cc1ccccc1CS(=O)(=O)Cc1ccc(C(=O)NCCCN2CCOCC2)o1`, the Potency is inactive: > 57 µM.
Consider `O=C(O)CSc1nnc(Cn2c(=O)sc3ccccc32)n1-c1cccc(Cl)c1`, for which the Potency is inactive: > 57 µM.
Regarding `O=C1OCCN1/N=C\c1ccc([N+](=O)[O-])o1`, the Potency was inactive: > 57 µM.
Then `O=C(CCS(=O)(=O)c1ccc(Br)cc1)N1CCN(c2ccccc2F)CC1`, with inactive: > 57 µM.
`O=C(C(Cc1ccccc1)N1C(=O)C2C3C=CC(C3)C2C1=O)N1CCCCCC1` (stereo unspecified): the Potency is inactive: > 57 µM.
Consider `COc1ccc(C2CC(=O)c3cnc(NC(=O)c4cccc(OC)c4)nc3C2)cc1` (stereo unspecified), for which the Potency was inactive: > 57 µM.
`CCOC(=O)c1ccc(NC(=O)CSc2nc3c(c(=O)n2CC)SC(C)C3)cc1` (stereo unspecified): the Potency is inactive: > 57 µM.
